# Percent effect of library compounds

By UniProt entry, the sequences of proteins in these tests, tags left out. Residues count along the entry.
UniProt P9WPC5, whole entry: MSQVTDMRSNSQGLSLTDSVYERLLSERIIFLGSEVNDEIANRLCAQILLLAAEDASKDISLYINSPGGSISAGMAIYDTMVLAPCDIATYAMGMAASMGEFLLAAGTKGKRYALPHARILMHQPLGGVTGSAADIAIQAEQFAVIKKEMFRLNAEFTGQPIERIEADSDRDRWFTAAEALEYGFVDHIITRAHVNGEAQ
UniProt P9WPC3, whole entry partner: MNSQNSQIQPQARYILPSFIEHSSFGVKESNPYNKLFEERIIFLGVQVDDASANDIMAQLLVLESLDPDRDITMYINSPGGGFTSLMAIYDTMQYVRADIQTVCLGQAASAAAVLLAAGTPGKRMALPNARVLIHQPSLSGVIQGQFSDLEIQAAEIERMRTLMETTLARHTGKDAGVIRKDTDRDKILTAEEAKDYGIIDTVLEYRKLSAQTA
UniProt A4I591, 1-473: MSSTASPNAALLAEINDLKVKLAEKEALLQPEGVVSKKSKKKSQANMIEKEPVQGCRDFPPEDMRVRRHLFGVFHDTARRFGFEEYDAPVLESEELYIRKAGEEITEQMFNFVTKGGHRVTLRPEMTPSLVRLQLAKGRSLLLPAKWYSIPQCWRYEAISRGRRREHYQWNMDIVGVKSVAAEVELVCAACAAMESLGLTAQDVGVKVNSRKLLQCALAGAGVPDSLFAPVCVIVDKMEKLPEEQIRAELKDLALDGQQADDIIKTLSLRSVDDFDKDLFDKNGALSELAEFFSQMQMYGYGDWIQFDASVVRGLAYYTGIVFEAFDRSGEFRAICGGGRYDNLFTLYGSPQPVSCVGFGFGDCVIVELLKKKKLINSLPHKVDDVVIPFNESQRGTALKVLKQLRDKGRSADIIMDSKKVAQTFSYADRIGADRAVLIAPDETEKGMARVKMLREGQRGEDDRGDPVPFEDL

ClpP1P2: 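Protease assay of ClpP1P2, read by the AMC dye that it sets free. Target: ClpP1P2, Mycobacterium tuberculosis (UniProt P9WPC5 and UniProt P9WPC3). Tested at 50 µM. Higher reads as stronger inhibition, judged from the few compounds that gave an IC50. Most other retested compounds had strongly negative values. Of about 69,000 compounds tested this way, about 10 (0.015%) reached 50% or more in at least one test.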
LiHisRS: 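Histidine-tRNA ligase, Leishmania infantum (UniProt A4I591). Enzyme assay of histidyl-tRNA synthetase; the read-out is not stated. Tested at 30 µM. Direction is inferred from retests: higher values go with stronger inhibition. The assay is labelled LdHisRS but filed under L. infantum. Size under these conditions: about 69,000 compounds, about 410 of them at 50% or above in at least one test.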

The filed quantity is “Percent Effect” (%).
How 0% and 100% were set is not recorded. Most values in the screen are low, and negative values occur.
This is an unselected part of the compounds tested.

| compound | ClpP1P2 | LiHisRS |
|---|---|---|
| `Cc1cc2c(=O)n3c(nc2s1)CCN(C(=O)c1ccnn1C)CC3` | -7.08% | 2% |
| `Cc1cc(C)cc(OCCN(C)C(=O)NC(C)c2nncn2C)c1` (centres undefined) | -25.71% | 15.52% |
| `Cc1nc(C2CCCN(C(=O)c3ccc(S(C)(=O)=O)cc3)C2)no1` (centres undefined) | -12.45% | 10.26% |
| `Cc1sc(NC(=O)CCC(=O)O)c(C(N)=O)c1-c1ccc(Cl)cc1Cl` | -14.13% | 5% |
| `CS(=O)(=O)N1CCOCC2(CCN(C(=O)c3ccncc3)CC2)C1` | -10.5% | 11.29% |
| `O=C(c1ccccc1-c1nc[nH]n1)N1CCOC(C(F)(F)F)C1` (centres undefined) | -2.896% | -0.8333% |
| `COc1ccccc1C1CC(=O)Nc2c1c(=O)[nH]n2C(C)C` (centres undefined) | -10.05% | 16.48% |
| `CC(Cn1ccnc1)NS(=O)(=O)c1ccc(F)c(Cl)c1` (centres undefined) | 5.338% | 16.67% |
| `O=C(O)c1ccnc(-c2ccnc(NCCc3cscn3)n2)c1` | 4.524% | 5.376% |
| `COc1cc(N2CCCC(c3nccn3CCN(C)C)C2)nc(N)n1` (centres undefined) | 5.069% | 22.86% |
| `Cc1c(NC(=O)N(C)CCCc2cnn(C)c2)cnn1C` | -0.9713% | 7.853% |
| `CC(C)(C)NC(=O)c1cnc(C(C)(C)C)s1` | -12.43% | 16.13% |
| `CCCNC(=O)NCc1nc(C)c(C)o1` | 4.53% | -6.061% |
| `CN(Cc1ccc(C2CC(=O)Nc3n[nH]cc32)o1)S(C)(=O)=O` (centres undefined) | 15.37% | 17.33% |
| `O=C(c1ncccn1)N1C[C@H]2CCC[C@@]2(COCc2cccnc2)C1` | -5.895% | -3.922% |
| `O=C(CN1CCC(c2ccnn2CCO)CC1)NCC1CCCCC1` | -22.71% | 11.86% |
| `Cc1nnc(SCCNC(=O)Cn2cnc3ccccc3c2=O)s1` | 8.783% | 6.667% |
| `O=C(NC1CC1)N1CCCC2(CCNC2=O)C1` (centres undefined) | -12.99% | 17.48% |
| `CC(C)Oc1ccc(CNC(=O)CCN2C(=O)CCC2=O)cc1F` | -25.71% | 16.51% |
| `Fc1ccc(C(CNc2ccncn2)N2CCCC2)cc1` (centres undefined) | 7.439% | -3.297% |
| `Fc1ccc(Cn2ncc3c2CN(c2ncccn2)C3)cc1` | -3.666% | 11.46% |
| `Cc1cccc(N2CCN(C(=O)CN3CCN(CCO)CC3)CC2)c1` | -4.717% | 15.24% |
| `O=C1NC2(CCN(CC3CC3)CC2)CC1c1ccccc1` (centres undefined) | 4.45% | 7.018% |
| `COC(=O)CN1CC(c2nc(Cc3ccccc3)no2)C1` | -6.974% | 19.23% |
| `O=C(O)C(c1ccc2c(c1)OCO2)N1CCCC1` (centres undefined) | -11.1% | 12.5% |
| `Cc1ccc(CNC(c2ccccc2)c2nccn2C)cc1C` (centres undefined) | 1.038% | 18.46% |
| `CCOC(=O)[C@H]1[C@@H](O)C(=O)N(C)C12CCN(C(=O)CC1CCCC1)CC2` | -2.693% | 16.49% |
| `c1coc(CN2CCO[C@H]3[C@H](OCC4CCCC4)CC[C@@H]32)c1` | 8.402% | 13.46% |
| `O=C(c1nccc2ccccc12)N1CCCCC1Cn1cccn1` (centres undefined) | -41.18% | 6.195% |
| `O=C(CN1CCNCC1)NCc1ccc2sccc2c1` | -22.13% | 18.03% |
| `CCN(Cc1nccn1C)C(=O)c1ccc(NCc2ccc(C)o2)nc1` | -19.1% | -2.5% |
| `CC1CCCCN1CCNC(=O)c1ccn(-c2cccc(F)c2)n1` (centres undefined) | -17.5% | 6.14% |
| `CC(C)N(C)C(=O)C1CSCN1S(=O)(=O)c1cc(Cl)ccc1Cl` (centres undefined) | 3.887% | -0.5236% |
| `Cn1nc(CN2CCCC2)c2c1CN(C(=O)c1cnccn1)CC2` | -7.477% | 7.018% |
| `COCc1nc(C(=O)N2CCCC(n3ccnc3C)C2)cs1` (centres undefined) | -7.463% | 9.615% |
| `NCCSc1nccc(-c2cnc(C3CC3)nc2-c2ccco2)n1` | 0.8126% | 11.43% |
| `CC(C)CCN1C2(CCN(Cc3nccs3)C2)c2ccccc2S1(=O)=O` (centres undefined) | -20.45% | 26% |
| `CC(C)OCc1ncn2c1CN(Cc1cnn(C)c1)CCC2` | -17.12% | 16.67% |
| `COc1ccnc(N2CCN(C(=O)COCC(F)(F)F)CC2)n1` | -14.48% | -3.67% |
| `CCC(=O)N1CCC(c2ncncc2C)CC1` | -7.5% | 4.225% |
| `CC(=O)Nc1ccc(OCc2noc(C(=O)N3CCCCCC3)n2)cc1` | 11.36% | 18.68% |
| `COC(=O)C(c1cc(F)ccc1F)N(C)C(=O)c1ccccn1` (centres undefined) | -5.469% | 8.772% |
| `Cc1ccc(NCc2cc(C#N)ccc2F)cc1-n1nnnc1C` | -4.55% | 12.2% |
| `COCCNC(=O)[C@H]1C[C@@H]2CCN(c3ccncn3)C[C@H]2O1` | -14.95% | 8.333% |
| `Cc1cccc(S(=O)(=O)N2Cc3c(CN(C)C)nn(C)c3C2)c1` | 3.169% | 16.81% |
| `Cc1nc(NC(=O)C(C)n2ncc(Br)c2C)sc1C` (centres undefined) | -3.002% | -4.301% |
| `CS(=O)(=O)NCCCNCc1cc(F)ccc1Br` | 0.5958% | 6.897% |
| `Cc1nnc(CN(C)CC(=O)NC(C)(C)c2ccc(F)cc2)n1C` | -6.21% | 11.67% |
| `Cn1ncc2c(N3CCS(=O)(=O)CC3)nc(C3CCCC3)nc21` | -5.961% | 17.81% |
| `CC(=O)c1cc(CC(=O)NCc2ccc(CN(C)C)cc2)cs1` | -6.71% | 13.46% |
| `Cc1nsc(N2CCN(C(=O)Nc3cccc(F)c3)CC2)n1` | -6.926% | 13.16% |
| `CN(C)S(=O)(=O)N1CCCC(c2ccncn2)C1` (centres undefined) | -9.523% | 2.069% |
| `O=C(NCCc1nnc2n1CCC2)NCC1(c2ccc(F)cc2)CC1` | -10.19% | 5.479% |
| `Cc1ccc(CN2CCNC(C(=O)NC3CC3)C2)cc1C` (centres undefined) | -29.46% | 14.17% |
| `CCC(C)N(Cc1cccnc1)Cc1cc2c(cc1Cl)OCO2` (centres undefined) | -16.46% | 16.42% |
| `CN(C)S(=O)(=O)CCNc1ncc2c(n1)CCN2c1ccccc1` | 2.527% | 11.48% |
| `O=C(O)[C@]12CCCN(CC3CCOC3)C[C@H]1CN(c1ncccn1)C2` (some centres undefined) | -9.598% | 6.306% |
| `N#Cc1cn(CCN2CCc3ccccc3C2)c(=O)[nH]c1=O` | 4.85% | 19.35% |
| `O=C(Nc1ccc2c(c1)C(=O)NC2=O)c1cccs1` | -17.6% | 5% |
| `CCn1ncnc1C(C)Nc1cc(C)c2ccc(SC)cc2n1` (centres undefined) | -2.404% | 11.67% |
| `Cc1ncnc2c1CCN(Cc1ccccn1)CC2` | -9.257% | -1.905% |

Once more, the final 6:

* CN(C)S(=O)(=O)CCNc1ncc2c(n1)CCN2c1ccccc1 | ClpP1P2: 2.527%; LiHisRS: 11.48%
* O=C(O)[C@]12CCCN(CC3CCOC3)C[C@H]1CN(c1ncccn1)C2 (some centres undefined) | ClpP1P2: -9.598%; LiHisRS: 6.306%
* N#Cc1cn(CCN2CCc3ccccc3C2)c(=O)[nH]c1=O | ClpP1P2: 4.85%; LiHisRS: 19.35%
* O=C(Nc1ccc2c(c1)C(=O)NC2=O)c1cccs1 | ClpP1P2: -17.6%; LiHisRS: 5%
* CCn1ncnc1C(C)Nc1cc(C)c2ccc(SC)cc2n1 (centres undefined) | ClpP1P2: -2.404%; LiHisRS: 11.67%
* Cc1ncnc2c1CCN(Cc1ccccn1)CC2 | ClpP1P2: -9.257%; LiHisRS: -1.905%

Source: ChEMBL document CHEMBL3988442, “University of Dundee, Small-Polar-MMV Screening Library” (2021).